Measurements taken from patent publication US8053463B2, “PPAR active compounds” (Plexxikon Inc., priority 2007, dated 2011).
Some entries share one result that the patent states for a list of compounds. For at least one compound, name, drawing or mass did not settle the structure.

test system: PPARα, PPARγ, or PPARδ; assay: PPAR activity assays (biochemical and cell based); settings: at least one of the assays, for at least one of PPARα

EC50, ≤ 1000 nM:
CCOc1ccc(-c2cccc(S(=O)(=O)n3cc(CCC(=O)O)c4cc(F)ccc43)c2)c(C)c1 [Compound P-0112, 3-[1-(4′-Ethoxy-2′-methyl-biphenyl-3-sulfonyl)-5-fluoro-1H-indol-3-yl]-propionic acid]
COc1ccc2c(c1)c(CCC(=O)O)cn2S(=O)(=O)c1cccc(-c2ccccc2)c1 [Compound P-0113, 3-[1-(Biphenyl-3-sulfonyl)-5-methoxy-1H-indol-3-yl]-propionic acid]
COc1ccc2c(c1)c(CCC(=O)O)cn2S(=O)(=O)c1cccc(-c2ccc(Cl)cc2Cl)c1 [Compound P-0114, 3-[1-(2′,4′-Dichloro-biphenyl-3-sulfonyl)-5-methoxy-1H-indol-3-yl]-propionic acid]
COc1ccc2c(c1)c(CCC(=O)O)cn2S(=O)(=O)c1cccc(-c2ccc(F)cc2C)c1 [Compound P-0115, 3-[1-(4′-Fluoro-2′-methyl-biphenyl-3-sulfonyl)-5-methoxy-1H-indol-3-yl]-propionic acid]
COc1ccc2c(c1)c(CCC(=O)O)cn2S(=O)(=O)c1cccc(-c2cccc(Cl)c2Cl)c1 [Compound P-0116, 3-[1-(2′,3′-Dichloro-biphenyl-3-sulfonyl)-5-methoxy-1-indol-3-yl]-propionic acid]
COc1ccc2c(c1)c(CCC(=O)O)cn2S(=O)(=O)c1cccc(-c2cccc(F)c2F)c1 [Compound P-0117, 3-[1-(2′,3′-Difluoro-biphenyl-3-sulfonyl)-5-methoxy-1H-indol-3-yl]-propionic acid]
COc1ccc2c(c1)c(CCC(=O)O)cn2S(=O)(=O)c1cccc(-c2ccc(C(F)(F)F)cc2Cl)c1 [Compound P-0118, 3-[1-(2′-Chloro-4′-trifluoromethyl-biphenyl-3-sulfonyl)-5-methoxy-1-indol-3-yl]-propionic acid]
COc1ccc2c(c1)c(CCC(=O)O)cn2S(=O)(=O)c1cccc(-c2ccc(Cl)cc2C)c1 [Compound P-0119, 3-[1-(4′-Chloro-2′-methyl-biphenyl-3-sulfonyl)-5-methoxy-1H-indol-3-yl]-propionic acid]
CCOc1ccc(-c2cccc(S(=O)(=O)n3cc(CCC(=O)O)c4cc(OC)ccc43)c2)c(Cl)c1 [Compound P-0120, 3-[1-(2′-Chloro-4′-ethoxy-biphenyl-3-sulfonyl)-5-methoxy-1H-indol-3-yl]-propionic acid]
COc1ccc2c(c1)c(CCC(=O)O)cn2S(=O)(=O)c1cccc(-c2cccc(F)c2Cl)c1 [Compound P-0121, 3-[1-(2′-Chloro-3′-fluoro-biphenyl-3-sulfonyl)-5-methoxy-1-indol-3-yl]-propionic acid]
COc1ccc2c(c1)c(CCC(=O)O)cn2S(=O)(=O)c1cccc(-c2ccc(F)cc2Cl)c1 [Compound P-0122, 3-[1-(2′-Chloro-4′-fluoro-biphenyl-3-sulfonyl)-5-methoxy-1H-indol-3-yl]-propionic acid]
CCOc1ccc(-c2cccc(S(=O)(=O)n3cc(CCC(=O)O)c4cc(OC)ccc43)c2)c(C)c1 [Compound P-0123, 3-[1-(4′-Ethoxy-2′-methyl-biphenyl-3-sulfonyl)-5-methoxy-1H-indol-3-yl]-propionic acid]
O=C(O)CCc1cn(S(=O)(=O)c2cccc(-c3ccccc3)c2)c2ccc(Cl)cc12 [Compound P-0124, 3-[1-(Biphenyl-3-sulfonyl)-5-chloro-1H-indol-3-yl]-propionic acid]
O=C(O)CCc1cn(S(=O)(=O)c2cccc(-c3ccc(Cl)cc3Cl)c2)c2ccc(Cl)cc12 [Compound P-0125, 3-[5-Chloro-1-(2′,4′-dichloro-biphenyl-3-sulfonyl)-1H-indol-3-yl]-propionic acid]
Cc1cc(F)ccc1-c1cccc(S(=O)(=O)n2cc(CCC(=O)O)c3cc(Cl)ccc32)c1 [Compound P-0126, 3-[5-Chloro-1-(4′-fluoro-2′-methyl-biphenyl-3-sulfonyl)-1H-indol-3-yl]-propionic acid]
O=C(O)CCc1cn(S(=O)(=O)c2cccc(-c3cccc(Cl)c3Cl)c2)c2ccc(Cl)cc12 [Compound P-0127, 3-[5-Chloro-1-(2′,3′-dichloro-biphenyl-3-sulfonyl)-1H-indol-3-yl]-propionic acid]
O=C(O)CCc1cn(S(=O)(=O)c2cccc(-c3cccc(F)c3F)c2)c2ccc(Cl)cc12 [Compound P-0128, 3-[5-Chloro-1-(2′,3′-difluoro-biphenyl-3-sulfonyl)-1H-indol-3-yl]-propionic acid]
O=C(O)CCc1cn(S(=O)(=O)c2cccc(-c3ccc(C(F)(F)F)cc3Cl)c2)c2ccc(Cl)cc12 [Compound P-0129, 3-[5-Chloro-1-(2′-chloro-4′-trifluoromethyl-biphenyl-3-sulfonyl)-1H-indol-3-yl]-propionic acid]
Cc1cc(Cl)ccc1-c1cccc(S(=O)(=O)n2cc(CCC(=O)O)c3cc(Cl)ccc32)c1 [Compound P-0130, 3-[5-Chloro-1-(4′-chloro-2′-methyl-biphenyl-3-sulfonyl)-1H-indol-3-yl]-propionic acid]
CCOc1ccc(-c2cccc(S(=O)(=O)n3cc(CCC(=O)O)c4cc(Cl)ccc43)c2)c(Cl)c1 [Compound P-0131, 3-[5-Chloro-1-(2′-chloro-4′-ethoxy-biphenyl-3-sulfonyl)-1H-indol-3-yl]-propionic acid]
O=C(O)CCc1cn(S(=O)(=O)c2cccc(-c3cccc(F)c3Cl)c2)c2ccc(Cl)cc12 [Compound P-0132, 3-[5-Chloro-1-(2′-chloro-3′-fluoro-biphenyl-3-sulfonyl)-1H-indol-3-yl]-propionic acid]
O=C(O)CCc1cn(S(=O)(=O)c2cccc(-c3ccc(F)cc3Cl)c2)c2ccc(Cl)cc12 [Compound P-0133, 3-[5-Chloro-1-(2′-chloro-4′-fluoro-biphenyl-3-sulfonyl)-1H-indol-3-yl]-propionic acid]
CCOc1ccc(-c2cccc(S(=O)(=O)n3cc(CCC(=O)O)c4cc(Cl)ccc43)c2)c(C)c1 [Compound P-0134, 3-[5-Chloro-1-(4′-ethoxy-2′-methyl-biphenyl-3-sulfonyl)-1H-indol-3-yl]-propionic acid]
Cc1c(-c2ccc(C(F)(F)F)cc2)cccc1S(=O)(=O)n1cc(CCC(=O)O)c2cc(Cl)ccc21 [Compound P-0146, 3-[5-Chloro-1-(2-methyl-4′-trifluoromethyl-biphenyl-3-sulfonyl)-1H-indol-3-yl]-propionic acid]
Cc1c(-c2ccc(OC(F)(F)F)cc2)cccc1S(=O)(=O)n1cc(CCC(=O)O)c2cc(Cl)ccc21 [Compound P-0147, 3-[5-Chloro-1-(2-methyl-4′-trifluoromethoxy-biphenyl-3-sulfonyl)-1H-indol-3-yl]-propionic acid]
O=C(O)CCc1cn(S(=O)(=O)c2cncc(-c3ccc(OC(F)(F)F)cc3)c2)c2ccc(Cl)cc12 [Compound P-0148, 3-{5-Chloro-1-[5-(4-trifluoromethoxy-phenyl)-pyridine-3-sulfonyl]-1H-indol-3-yl}-propionic acid]
O=C(O)CCc1cn(S(=O)(=O)c2cncc(-c3ccc(C(F)(F)F)cc3)c2)c2ccc(Cl)cc12 [Compound P-0149, 3-{5-chloro-1-[5-(4-trifluoromethyl-phenyl)-pyridine-3-sulfonyl]-1H-indol-3-yl}-propionic acid]
COC(=O)CCc1cn(S(=O)(=O)c2cncc(-c3ccc(C(F)(F)F)cc3F)c2)c2ccc(F)cc12 [Compound P-0153, 3-{5-Fluoro-1-[5-(2-fluoro-4-trifluoromethyl-phenyl)-pyridine-3-sulfonyl]-1H-indol-3yl}-propionic acid methyl ester]
O=C(O)CCc1cn(S(=O)(=O)c2cncc(-c3ccc(OC(F)(F)F)cc3)c2)c2ccc(F)cc12 [Compound P-0154, 3-{5-Fluoro-1-[5-(4-trifluoromethoxy-phenyl)-pyridine-3-sulfonyl]-1H-indol-3-yl}-propionic acid]
O=C(O)CCc1cn(S(=O)(=O)c2cncc(-c3ccc(C(F)(F)F)cc3)c2)c2ccc(F)cc12 [Compound P-0155, 3-{5-Fluoro-1-[5-(4-trifluoromethyl-phenyl)-pyridine-3-sulfonyl]-1H-indol-3-yl}-propionic acid]
CCOc1ccc(-c2cncc(S(=O)(=O)n3cc(CCC(=O)O)c4cc(Cl)ccc43)c2)c(C)c1 [Compound P-0156, 3-{5-Chloro-1-[5-(4-ethoxy-2-methyl-phenyl)-pyridine-3-sulfonyl]-1H-indol-3-yl}-propionic acid]
CCOc1ccc(-c2cncc(S(=O)(=O)n3cc(CCC(=O)O)c4cc(Cl)ccc43)c2)c(Cl)c1 [Compound P-0157, 3-{5-Chloro-1-[5-(2-chloro-4-ethoxy-phenyl)-pyridine-3-sulfonyl]-1H-indol-3-yl}-propionic acid]
O=C(O)CCc1cn(S(=O)(=O)c2cncc(-c3ccc(C(F)(F)F)cc3F)c2)c2ccc(Cl)cc12 [Compound P-0158, 3-{5-Chloro-1-[5-(2-fluoro-4-trifluoromethyl-phenyl)-pyridin-3-sulfonyl]-1H-indol-3-yl}-propionic acid]
O=C(O)CCc1cn(S(=O)(=O)c2cncc(-c3ccc(C(F)(F)F)cc3Cl)c2)c2ccc(Cl)cc12 [Compound P-0159, 3-{5-Chloro-1-[5-(2-chloro-4-trifluoromethyl-phenyl)-pyridine-3-sulfonyl]-1H-indol-3-yl}-propionic acid]
Cc1cc(C(F)(F)F)ccc1-c1cncc(S(=O)(=O)n2cc(CCC(=O)O)c3cc(Cl)ccc32)c1 [Compound P-0160, 3-{5-Chloro-1-[5-(2-methyl-4-trifluoromethyl-phenyl)-pyridine-3-sulfonyl]-1H-indol-3-yl}-propionic acid]
CCOc1ccc(-c2cncc(S(=O)(=O)n3cc(CCC(=O)O)c4cc(F)ccc43)c2)c(C)c1 [Compound P-0161, 3-{-[5-(4-Ethoxy-2-methyl-phenyl)-pyridine-3-sulfonyl]-5-fluoro-H-indol-3-yl}-propionic acid]
